According to publication PMC11178869:
Residue numbers refer to the chain shown, from its start. These are yes or no findings as the source states them, for the method shown. For some assays here: In cells and extracts the contact can be indirect. Some entries that bind do so weakly or less than the wild type. For some assays here: Sequences can lack the tags named with a protein.

Experiments:
[1] = biological target: T1, TatC(Y154A) with C-terminal hexahistidine tag (E. coli) (UniProt P69423); assay: native gel or EMSA; BN-PAGE/Western blot (antisera against TatA, TatB, TatC) of digitonin-solubilized membranes and of Ni-NTA-purified samples; cells without or with overproduced EfeB
T1 sequence: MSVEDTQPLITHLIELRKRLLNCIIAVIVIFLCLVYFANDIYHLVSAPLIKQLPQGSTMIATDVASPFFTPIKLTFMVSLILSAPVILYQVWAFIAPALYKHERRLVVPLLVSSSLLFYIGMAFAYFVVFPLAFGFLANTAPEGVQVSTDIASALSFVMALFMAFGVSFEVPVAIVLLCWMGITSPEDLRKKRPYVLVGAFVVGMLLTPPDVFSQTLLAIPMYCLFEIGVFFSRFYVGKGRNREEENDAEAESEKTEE

[2] = biological target: T2, TatC(I50Y) with C-terminal hexahistidine tag (E. coli) (UniProt P69423); assay: as above
T2 sequence: T1 sequence with I50Y, A154Y

[3] = biological target: T3, TatC with C-terminal hexahistidine tag, wild type (TatABC system) (E. coli) (UniProt P69423); assay: as above
T3 sequence: T1 sequence with A154Y

[4] = biological target: T4, TatC(L189A) with C-terminal hexahistidine tag (E. coli) (UniProt P69423); assay: as above
T4 sequence: T1 sequence with A154Y, L189A

[5] = biological target: T1, TatC(Y154A) with C-terminal hexahistidine tag (E. coli); assay: pull-down; co-purification with C-terminally H6-tagged TatC on Ni-NTA agarose from membranes solubilized with 2% digitonin (50 mM Bis-Tris pH 7.0, 0.1% digitonin, 20% sucrose, MgCl2); eluate analysed by SDS-PAGE/silver stain and Western blot with antisera against TatA, TatB, TatC or EfeB; cells without or with overproduced EfeB
[6] = biological target: T2, TatC(I50Y) with C-terminal hexahistidine tag (E. coli); assay: as above
[7] = biological target: T3, TatC with C-terminal hexahistidine tag, wild type (TatABC system) (E. coli); assay: as above
[8] = biological target: T4, TatC(L189A) with C-terminal hexahistidine tag (E. coli); assay: as above
TatA (E. coli) = TatA (E. coli) (UniProt P69428); assay: native gel or EMSA; BN-PAGE/Western blot (antisera against TatA, TatB, TatC) of digitonin-solubilized membranes and of Ni-NTA-purified samples; cells without or with overproduced EfeB

Measured: binding

B1: TatB (protein, UniProt P69425 1-171)
chain: MFDIGFSELLLVFIIGLVVLGPQRLPVAVKTVAGWIRALRSLATTVQNELTQELKLQEFQDSLKKVEKASLTNLTPELKASMDELRQAAESMKRSYVANDPEKASDEAHTIHNPVVKDNEAAHEGVTPAAAQTQASSPEQKPETTPEPVVKPAADAEPKTAAPSPSSSDKP
binds: [1] | [2] | [3] | [4] | [5] | [6] | [7] | [8]

B2: TatA (protein, UniProt P69428 1-89)
chain: MGGISIWQLLIIAVIVVLLFGTKKLGSIGSDLGASIKGFKKAMSDDEPKQDKTSQDADFTAKTIADKQADTNQEQAKTEDAKRHDKEQV
binds: [1] | [2] | [3] | [4] | TatA (E. coli) | [5] | [6] | [7] | [8]
